# Patent US20060073146A1
# Amino acid sequences for entries named in this document (tags omitted). A change or cut given only in a name is not applied to a line headed by its entry. Residues count along the entry.
# UniProt Q02223: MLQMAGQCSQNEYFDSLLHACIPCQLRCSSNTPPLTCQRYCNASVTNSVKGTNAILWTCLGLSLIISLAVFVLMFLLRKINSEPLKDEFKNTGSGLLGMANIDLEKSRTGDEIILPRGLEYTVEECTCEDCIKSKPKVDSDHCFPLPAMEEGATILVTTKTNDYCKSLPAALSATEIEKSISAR
# UniProt O43557, residues 82-240: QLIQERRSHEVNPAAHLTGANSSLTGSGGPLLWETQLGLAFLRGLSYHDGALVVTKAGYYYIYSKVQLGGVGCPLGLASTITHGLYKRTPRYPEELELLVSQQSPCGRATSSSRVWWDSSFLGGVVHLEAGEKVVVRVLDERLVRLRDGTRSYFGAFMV
# No constants are given. Whether binding was seen depends on the method and setting. For some assays here: In cells and extracts the contact can be indirect. Some entries that bind do so weakly or less than the wild type. For some assays here: Tags and fused reporters may be left off the sequences shown.
# Assays:
# [1] = biological target: TALL-1, membrane form on transfected COS 7 cells (chimeric ligand: TNF-alpha intracellular and transmembrane regions, TALL-1 extracellular region aa 75-285) (human) (UniProt P01375); experiment: Fc fusion on ligand-transfected COS 7 cells, Cy3 staining
# [2] = biological target: T1, DcR3-IgG (IgG1-Fc fusion of the ECD of DcR3) (human) (UniProt O95407); experiment: co-immunoprecipitation and Western blot
# T1 sequence (looked up): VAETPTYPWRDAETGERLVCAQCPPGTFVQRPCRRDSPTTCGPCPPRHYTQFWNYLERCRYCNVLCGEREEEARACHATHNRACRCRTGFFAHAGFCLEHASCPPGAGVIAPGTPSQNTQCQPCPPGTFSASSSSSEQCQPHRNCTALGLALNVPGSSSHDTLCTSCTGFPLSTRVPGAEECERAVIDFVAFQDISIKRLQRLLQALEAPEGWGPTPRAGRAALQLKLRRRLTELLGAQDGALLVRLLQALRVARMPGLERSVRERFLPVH
binding [1],binding [2],Substance
binds,,BCMA-ECD immunoadhesin (amino acids 5-51 of human BCMA fused to human IgG1 Fc) (from UniProt Q02223 5-51) (Fc fusion)
,binds,Flag-LIGHT (from UniProt O43557 82-240) (ligand)
